Paper PMC7447710
Results are given in words; binding and its absence hold for the method and conditions named. In cells and extracts the contact can be indirect. Some binding calls cover weakened binding; strength is not graded here.

Amino acid sequences for entries named in this document (tags omitted).
UniProt P19785: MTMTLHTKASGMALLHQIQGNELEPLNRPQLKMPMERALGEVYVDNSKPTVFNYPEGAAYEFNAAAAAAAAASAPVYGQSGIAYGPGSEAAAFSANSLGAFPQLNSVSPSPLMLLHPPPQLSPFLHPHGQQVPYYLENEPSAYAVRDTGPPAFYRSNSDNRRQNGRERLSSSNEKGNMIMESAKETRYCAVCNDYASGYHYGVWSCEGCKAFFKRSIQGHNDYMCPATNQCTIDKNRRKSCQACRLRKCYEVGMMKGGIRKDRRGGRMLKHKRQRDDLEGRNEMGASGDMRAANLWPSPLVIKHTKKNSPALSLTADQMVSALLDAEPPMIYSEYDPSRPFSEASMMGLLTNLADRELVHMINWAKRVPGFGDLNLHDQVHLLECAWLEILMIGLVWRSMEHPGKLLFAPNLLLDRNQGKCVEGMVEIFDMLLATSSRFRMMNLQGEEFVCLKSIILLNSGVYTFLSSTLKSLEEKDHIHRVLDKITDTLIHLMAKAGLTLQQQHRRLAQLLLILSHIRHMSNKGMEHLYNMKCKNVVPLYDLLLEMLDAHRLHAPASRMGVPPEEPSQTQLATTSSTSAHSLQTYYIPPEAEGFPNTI

Biological target: T1, Nup133 (mouse (endogenous in primary OPCs)) (UniProt Q8R0G9)
T1 sequence: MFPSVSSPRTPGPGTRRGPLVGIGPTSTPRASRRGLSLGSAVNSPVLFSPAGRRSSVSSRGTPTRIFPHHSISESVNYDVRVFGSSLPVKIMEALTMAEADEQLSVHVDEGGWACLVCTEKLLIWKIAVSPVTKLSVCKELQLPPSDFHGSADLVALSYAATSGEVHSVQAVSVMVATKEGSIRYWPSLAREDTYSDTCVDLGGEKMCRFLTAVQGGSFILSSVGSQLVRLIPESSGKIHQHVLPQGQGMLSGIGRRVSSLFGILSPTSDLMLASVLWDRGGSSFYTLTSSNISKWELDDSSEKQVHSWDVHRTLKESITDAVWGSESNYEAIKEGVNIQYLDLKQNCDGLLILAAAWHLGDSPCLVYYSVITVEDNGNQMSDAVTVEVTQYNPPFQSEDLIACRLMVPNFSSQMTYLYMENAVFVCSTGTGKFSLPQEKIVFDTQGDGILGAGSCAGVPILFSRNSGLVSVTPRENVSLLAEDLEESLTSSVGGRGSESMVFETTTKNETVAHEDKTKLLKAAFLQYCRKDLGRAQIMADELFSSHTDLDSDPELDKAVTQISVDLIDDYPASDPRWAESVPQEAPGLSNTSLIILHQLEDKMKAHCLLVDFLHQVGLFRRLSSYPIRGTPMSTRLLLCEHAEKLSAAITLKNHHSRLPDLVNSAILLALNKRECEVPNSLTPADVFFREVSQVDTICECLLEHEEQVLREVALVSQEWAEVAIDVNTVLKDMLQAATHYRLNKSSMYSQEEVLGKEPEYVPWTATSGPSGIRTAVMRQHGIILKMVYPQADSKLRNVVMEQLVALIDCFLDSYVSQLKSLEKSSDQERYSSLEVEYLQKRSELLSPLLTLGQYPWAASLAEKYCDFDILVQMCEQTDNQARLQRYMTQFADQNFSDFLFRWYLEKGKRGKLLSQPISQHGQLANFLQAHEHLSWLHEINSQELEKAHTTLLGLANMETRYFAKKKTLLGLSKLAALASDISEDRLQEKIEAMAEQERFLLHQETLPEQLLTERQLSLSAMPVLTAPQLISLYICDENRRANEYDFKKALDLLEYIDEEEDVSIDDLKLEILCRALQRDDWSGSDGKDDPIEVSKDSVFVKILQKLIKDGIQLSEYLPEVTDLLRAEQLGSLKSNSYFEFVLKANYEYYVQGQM
Test: co-IP; immunoprecipitation with anti-Nup133 antibody from male and female mouse OPCs under normoxia (3% O2) and hyperoxia (24 h 80% O2); western blot for ERα

- binding: binds
Substance: estrogen receptor alpha (from UniProt P19785 1-599)
